Laboratory results reported in paper PMC5066947, “Voltage-Dependent Anion Channel-1, a Possible Ligand of Plasminogen Kringle 5” (PLoS ONE, 2016).
No constants are given. Whether binding was seen depends on the method and setting. Some binding calls cover weakened binding; strength is not graded here.

Amino acid sequences for entries named in this document (tags omitted). Residues count along the entry.
UniProt P00747, residues 480-563: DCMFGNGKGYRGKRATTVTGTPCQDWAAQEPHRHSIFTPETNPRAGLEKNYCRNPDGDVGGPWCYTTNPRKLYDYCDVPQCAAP

What was measured:
[1] = molecular target: recombinant plasminogen Kringle 5 (human) (UniProt P00747); assay: ELISA; phage ELISA: wells coated with 100 μL of 150 μg·mL^-1 Kringle 5, blocked with BSA and streptavidin; serial dilutions of phage clone, 2 h at room temperature; HRP-marked anti-M13 antibody, TMB; uncoated blocked wells as control; only the target purified
[2] = molecular target: recombinant plasminogen Kringle 5 (human) (UniProt P00747); assay: phage display panning; Ph.D.-7 library panned four rounds on an ELISA plate coated with Kringle 5, an uncoated blocked well as control group; clones of both groups sequenced; only the target purified

Binder | binding [1] | binding [2]
LPWQIHN [Ph.D.-7-3] | binds | 
IGNSNTL [Ph.D.-7-1] | binds | 
LKLGEKW [Ph.D.-7-2] | binds | 
VKSTQYT [Ph.D.-7-10] | binds | 
PTNQHHL [Ph.D.-7-9] |  | no binding

The next lines start with the values.

binding [1] | binding [2] | Binder
 | no binding | MPVGAFK [Ph.D.-7-11]
binds |  | DELHKAR [Ph.D.-7-12]
 | no binding | FGAFTPH [Ph.D.-7-14]
